For this assay, the target named is DS-Cav1 RSV F (respiratory syncytial virus (RSV); strain not stated in the example) (UniProt P13843). Kind of assay: ELISA on RSV-F Ds-Cav1, 1 ug/ml. (In general: In an ELISA, binding on a coated surface is turned into a signal by an enzyme label.)

Experimental findings from US20260028391A1 are described below.

These are yes or no findings as the source states them, for the method shown. Some binding calls cover weakened binding; strength is not graded here.

B1: MPH12-v1 (VH C111/C112.2 variant of Tables 18 and 19) (antibody, V domains shown)
VH: QVQLVESGGGLVKPGGSLRLSCVASGFTFSGFYMKWIRQAPGKGLEWVSSISASGSYTNYADSVEGRFTVSRDNAKNSLFLLMSSLRAEDTAVYYCARGDSYSGASASHGEFFHKWGQGTLVTVSS
VL: QSVLTQPPSVSGAPGQRVTISCTGSDSNIGADFDVHWYQQLPGTAPKLLIYGNINRPSGVPDRFSGSRSGTSAFLAITRLQAEDEADYYCQSYDRSLHYVFGAGTKVTVL
Consider B1, for which the binding entry is listed as “binds”.

B2: MPH12-v2 (VH C111/C112.2 variant of Tables 18 and 19) (antibody, V domains shown)
VH: QVQLVESGGGLVKPGGSLRLSCVASGFTFSGFYMKWIRQAPGKGLEWVSSISASGSYTNYADSVEGRFTVSRDNAKNSLFLLMSSLRAEDTAVYYCARGDSYAGASAAHGEFFHKWGQGTLVTVSS
VL: QSVLTQPPSVSGAPGQRVTISCTGSDSNIGADFDVHWYQQLPGTAPKLLIYGNINRPSGVPDRFSGSRSGTSAFLAITRLQAEDEADYYCQSYDRSLHYVFGAGTKVTVL
For the molecule B2, the binding result is reported as “binds”.
